# Measurements reported in PubChem BioAssay AID1224830 (NIAID, 2016)
# Aim: 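Regulators of TLR4 signalling towards TNF-alpha in macrophage-like cells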 (primary screen)
# System: human THP-1 monocytic leukaemia cells, TNF dual-luciferase reporter clone, PMA-differentiated to macrophage-like cells
# Knock-down reagent: siRNA pool against human genes, 50 nM
# Time to read-out: LPS for 4 h, given about 3 days after siRNA transfection
# Treatment: bacterial LPS (TLR4 ligand), 10 ng/ml
# Measured: 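Ratio of firefly to renilla light, scaled to the plate median and expressed as a robust z-score per replicate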
# Reading the numbers: TNF reporter robust z-score: higher = stronger TNF reporter response to LPS
# Active means: 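Each well counts as active if its z-score is over 2.8 or under -1.5; controls are left without a call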
# This is an unselected part of about 18,000 reagents. About 2,900 of all reagents (16%) were called active. 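Calls are made per well; low scores hint the gene aids the LPS response, high scores that it dampens it.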 A number with no mark means an inactive call. Repeated entries: four replicate wells of each siRNA pool.
The first 6 entries, ahead of the listing:
gene knocked down,TNF reporter robust z-score
SRP72 (signal recognition particle 72),-0.84
SRP72 (signal recognition particle 72),0.74
SRP72 (signal recognition particle 72),0.75
SRP72 (signal recognition particle 72),1.31
TP53I11 (tumor protein p53 inducible protein 11),-0.67
TP53I11 (tumor protein p53 inducible protein 11),-0.81

Main list, repeating the preview:
gene knocked down,TNF reporter robust z-score
SRP72 (signal recognition particle 72),-0.84
SRP72 (signal recognition particle 72),0.74
SRP72 (signal recognition particle 72),0.75
SRP72 (signal recognition particle 72),1.31
TP53I11 (tumor protein p53 inducible protein 11),-0.67
TP53I11 (tumor protein p53 inducible protein 11),-0.81
TP53I11 (tumor protein p53 inducible protein 11),-1.07
TP53I11 (tumor protein p53 inducible protein 11),-1
SERPINB13 (serpin family B member 13),1.91
SERPINB13 (serpin family B member 13),3.38 (active)
SERPINB13 (serpin family B member 13),-0.22
SERPINB13 (serpin family B member 13),0.66
MMP21 (matrix metallopeptidase 21),-0.35
MMP21 (matrix metallopeptidase 21),0.6
MMP21 (matrix metallopeptidase 21),-1.43
MMP21 (matrix metallopeptidase 21),-0.09
NOM1 (nucleolar protein with MIF4G domain 1),-0.01
NOM1 (nucleolar protein with MIF4G domain 1),0.28
NOM1 (nucleolar protein with MIF4G domain 1),-1.19
NOM1 (nucleolar protein with MIF4G domain 1),-0.38
TVP23A (trans-golgi network vesicle protein 23 homolog A),-0.24
TVP23A (trans-golgi network vesicle protein 23 homolog A),0.26
TVP23A (trans-golgi network vesicle protein 23 homolog A),-1.37
TVP23A (trans-golgi network vesicle protein 23 homolog A),-0.65
CLEC10A (C-type lectin domain containing 10A),-0.49
CLEC10A (C-type lectin domain containing 10A),-0.88
CLEC10A (C-type lectin domain containing 10A),-0.71
CLEC10A (C-type lectin domain containing 10A),-0.12
SKOR1 (SKI family transcriptional corepressor 1),0.66
SKOR1 (SKI family transcriptional corepressor 1),0.44
SKOR1 (SKI family transcriptional corepressor 1),3.88 (active)
SKOR1 (SKI family transcriptional corepressor 1),2.36
OR6C3 (olfactory receptor family 6 subfamily C member 3),-0.59
OR6C3 (olfactory receptor family 6 subfamily C member 3),-0.82
OR6C3 (olfactory receptor family 6 subfamily C member 3),-0.19
OR6C3 (olfactory receptor family 6 subfamily C member 3),-0.02
POU2F1 (POU class 2 homeobox 1),-1.85 (active)
POU2F1 (POU class 2 homeobox 1),-1.97 (active)
POU2F1 (POU class 2 homeobox 1),-1.37
POU2F1 (POU class 2 homeobox 1),-0.31
DPF2 (double PHD fingers 2),0.08
DPF2 (double PHD fingers 2),0.64
DPF2 (double PHD fingers 2),-1.9 (active)
DPF2 (double PHD fingers 2),0.51
YPEL1 (yippee like 1),-1.24
YPEL1 (yippee like 1),-0.83
YPEL1 (yippee like 1),-0.4
YPEL1 (yippee like 1),-0.24
GPR12 (G protein-coupled receptor 12),-0.17
GPR12 (G protein-coupled receptor 12),-0.35
GPR12 (G protein-coupled receptor 12),-0.45
GPR12 (G protein-coupled receptor 12),0.15
AP3M1 (adaptor related protein complex 3 subunit mu 1),-0.01
AP3M1 (adaptor related protein complex 3 subunit mu 1),0.48
AP3M1 (adaptor related protein complex 3 subunit mu 1),0.82
AP3M1 (adaptor related protein complex 3 subunit mu 1),1.07
ERAS (ES cell expressed Ras),0.75
ERAS (ES cell expressed Ras),0.72
ERAS (ES cell expressed Ras),-0.13
ERAS (ES cell expressed Ras),-0.26
UPK3A (uroplakin 3A),0.92
UPK3A (uroplakin 3A),0.41
UPK3A (uroplakin 3A),1.21
UPK3A (uroplakin 3A),-0.95
RCOR1 (REST corepressor 1),0.9
RCOR1 (REST corepressor 1),0.19
RCOR1 (REST corepressor 1),1.04
RCOR1 (REST corepressor 1),1.73
RFXANK (regulatory factor X associated ankyrin containing protein),0.05
RFXANK (regulatory factor X associated ankyrin containing protein),1.5
RFXANK (regulatory factor X associated ankyrin containing protein),1.66
MIX23 (mitochondrial matrix import factor 23),-0.28
MIX23 (mitochondrial matrix import factor 23),-0.99
MIX23 (mitochondrial matrix import factor 23),-0.04
MIX23 (mitochondrial matrix import factor 23),-0.31
RASA1 (RAS p21 protein activator 1),-1.1
RASA1 (RAS p21 protein activator 1),-0.86
RASA1 (RAS p21 protein activator 1),-0.66
RASA1 (RAS p21 protein activator 1),-0.32
IL10RA (interleukin 10 receptor subunit alpha),-0.96
IL10RA (interleukin 10 receptor subunit alpha),-0.74
IL10RA (interleukin 10 receptor subunit alpha),-0.49
RFX5 (regulatory factor X5),-1.48
RFX5 (regulatory factor X5),-1.31
RFX5 (regulatory factor X5),-1.26
GABRB2 (gamma-aminobutyric acid type A receptor subunit beta2),-1.48
GABRB2 (gamma-aminobutyric acid type A receptor subunit beta2),0.88
GABRB2 (gamma-aminobutyric acid type A receptor subunit beta2),-1.37
GABRB2 (gamma-aminobutyric acid type A receptor subunit beta2),-1.09
MAFK (MAF bZIP transcription factor K),-0.21
MAFK (MAF bZIP transcription factor K),1.18
MAFK (MAF bZIP transcription factor K),1.1
MAFK (MAF bZIP transcription factor K),-0.26
FCRLA (Fc receptor like A),1.42
FCRLA (Fc receptor like A),1.05
FCRLA (Fc receptor like A),0.53
FCRLA (Fc receptor like A),1.19
OR10G3 (olfactory receptor family 10 subfamily G member 3),0.36
OR10G3 (olfactory receptor family 10 subfamily G member 3),0.67
OR10G3 (olfactory receptor family 10 subfamily G member 3),0.07
OR10G3 (olfactory receptor family 10 subfamily G member 3),1.08
PLEC (plectin),-0.48
PLEC (plectin),0.18
PLEC (plectin),0.11
PLEC (plectin),0.35
"STUM (stum, mechanosensory transduction mediator homolog)",-0.71
"STUM (stum, mechanosensory transduction mediator homolog)",-0.88
"STUM (stum, mechanosensory transduction mediator homolog)",-0.82
"STUM (stum, mechanosensory transduction mediator homolog)",-0.57
RABGGTB (Rab geranylgeranyltransferase subunit beta),2.02
RABGGTB (Rab geranylgeranyltransferase subunit beta),1.58
RABGGTB (Rab geranylgeranyltransferase subunit beta),-0.32
RABGGTB (Rab geranylgeranyltransferase subunit beta),-0.01
